The other results are listed elsewhere or left out.
Assays:
Assay in all cases: log2 fold change, soluble protein after heating vs DMSO (PISA); higher = thermal stabilisation; K562 lysate, 10 uM; active = over 0.2 and 3.5 SD of the protein, either way, in both replicates (recomputed)
ibrutinib = compound: C=CC(=O)N1CCC[C@@H](n2nc(-c3ccc(Oc4ccccc4)cc3)c3c(N)ncnc32)C1 [ibrutinib]
Summary of the method: (§1)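 To prepare the extract, K562 pellets were dounce-homogenised in PBS pH 7.4 with 1 mM MgCl2, giving crude material at 1 mg/mL protein. This was treated with 10 μM compound for 30 min, then heated in aliquots for 3 min over 48°C-58°C before pooling and addition of NP-40 to 0.5% at 4°C. Centrifugation at 21,000xg for 90 min left soluble protein in the supernatant, which TMTpro 16plex LC-MS/MS quantified with equalised channel sums. Results are log-two fold changes in thermal stability compared with solvent controls, from duplicates.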

Protein sequences, listed by entry. Tags and fused reporters are not part of them. Lines headed by an entry give the natural chain unless they say otherwise; changes in a name come on top.
UniProt Q53FA7: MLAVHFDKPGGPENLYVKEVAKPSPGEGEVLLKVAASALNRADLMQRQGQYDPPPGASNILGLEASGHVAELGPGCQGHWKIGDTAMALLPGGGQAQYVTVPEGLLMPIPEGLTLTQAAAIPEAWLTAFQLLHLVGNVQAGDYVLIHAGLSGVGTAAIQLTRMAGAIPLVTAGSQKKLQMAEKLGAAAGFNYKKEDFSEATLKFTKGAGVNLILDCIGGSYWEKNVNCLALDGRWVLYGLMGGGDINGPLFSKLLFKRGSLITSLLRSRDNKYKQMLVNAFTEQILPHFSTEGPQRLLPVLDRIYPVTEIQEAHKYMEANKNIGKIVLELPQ
UniProt Q59H18: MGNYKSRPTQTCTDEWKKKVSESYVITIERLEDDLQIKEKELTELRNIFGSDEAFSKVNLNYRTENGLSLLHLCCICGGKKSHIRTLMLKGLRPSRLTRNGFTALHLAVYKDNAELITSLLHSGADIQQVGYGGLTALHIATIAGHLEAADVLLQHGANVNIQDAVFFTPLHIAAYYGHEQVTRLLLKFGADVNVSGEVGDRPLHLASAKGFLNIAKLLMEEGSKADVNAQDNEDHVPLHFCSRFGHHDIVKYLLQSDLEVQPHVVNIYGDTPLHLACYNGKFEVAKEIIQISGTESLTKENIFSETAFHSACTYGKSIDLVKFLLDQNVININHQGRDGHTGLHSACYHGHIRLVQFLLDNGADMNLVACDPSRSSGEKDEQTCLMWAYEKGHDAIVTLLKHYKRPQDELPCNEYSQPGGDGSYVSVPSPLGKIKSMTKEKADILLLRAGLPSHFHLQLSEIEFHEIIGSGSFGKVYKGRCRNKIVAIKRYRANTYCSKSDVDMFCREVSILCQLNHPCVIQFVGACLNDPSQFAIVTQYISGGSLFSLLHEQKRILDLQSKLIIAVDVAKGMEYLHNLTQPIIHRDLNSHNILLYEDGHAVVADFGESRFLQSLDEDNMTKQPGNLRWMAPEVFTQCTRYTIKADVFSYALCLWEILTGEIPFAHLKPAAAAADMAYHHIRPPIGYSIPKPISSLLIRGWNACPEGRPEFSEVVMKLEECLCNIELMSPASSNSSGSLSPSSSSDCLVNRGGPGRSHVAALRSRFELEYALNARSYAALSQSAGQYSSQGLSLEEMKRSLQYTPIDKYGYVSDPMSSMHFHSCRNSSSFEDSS
UniProt O60784, whole entry, looked up: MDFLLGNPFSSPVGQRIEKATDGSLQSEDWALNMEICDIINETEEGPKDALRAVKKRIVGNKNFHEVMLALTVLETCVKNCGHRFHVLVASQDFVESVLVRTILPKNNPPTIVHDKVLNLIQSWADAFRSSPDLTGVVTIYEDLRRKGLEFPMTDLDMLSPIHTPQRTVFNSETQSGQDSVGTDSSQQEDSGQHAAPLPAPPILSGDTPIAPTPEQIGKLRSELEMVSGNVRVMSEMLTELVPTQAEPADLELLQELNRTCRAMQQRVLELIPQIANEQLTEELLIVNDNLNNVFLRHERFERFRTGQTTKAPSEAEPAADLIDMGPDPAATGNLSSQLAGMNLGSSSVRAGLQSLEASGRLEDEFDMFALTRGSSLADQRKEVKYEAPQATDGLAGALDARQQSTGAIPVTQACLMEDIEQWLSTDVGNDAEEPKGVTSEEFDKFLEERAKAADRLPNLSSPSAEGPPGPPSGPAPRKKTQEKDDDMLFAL
UniProt O94826, whole entry, looked up: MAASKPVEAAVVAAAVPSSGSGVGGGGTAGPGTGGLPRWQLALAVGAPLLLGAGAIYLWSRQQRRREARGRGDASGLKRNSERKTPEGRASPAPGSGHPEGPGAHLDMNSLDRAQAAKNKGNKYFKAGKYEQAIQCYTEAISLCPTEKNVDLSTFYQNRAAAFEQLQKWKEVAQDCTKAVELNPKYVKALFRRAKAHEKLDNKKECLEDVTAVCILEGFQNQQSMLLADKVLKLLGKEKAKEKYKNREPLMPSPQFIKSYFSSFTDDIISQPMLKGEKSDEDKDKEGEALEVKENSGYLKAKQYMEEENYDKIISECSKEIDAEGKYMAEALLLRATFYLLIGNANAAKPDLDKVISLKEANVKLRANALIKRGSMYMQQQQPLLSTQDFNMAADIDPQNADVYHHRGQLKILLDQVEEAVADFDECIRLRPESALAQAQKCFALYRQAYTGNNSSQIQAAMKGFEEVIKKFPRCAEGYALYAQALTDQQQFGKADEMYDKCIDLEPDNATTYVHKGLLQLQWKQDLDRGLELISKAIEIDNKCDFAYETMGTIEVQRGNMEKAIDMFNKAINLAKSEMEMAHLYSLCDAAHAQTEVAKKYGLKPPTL
UniProt P51580: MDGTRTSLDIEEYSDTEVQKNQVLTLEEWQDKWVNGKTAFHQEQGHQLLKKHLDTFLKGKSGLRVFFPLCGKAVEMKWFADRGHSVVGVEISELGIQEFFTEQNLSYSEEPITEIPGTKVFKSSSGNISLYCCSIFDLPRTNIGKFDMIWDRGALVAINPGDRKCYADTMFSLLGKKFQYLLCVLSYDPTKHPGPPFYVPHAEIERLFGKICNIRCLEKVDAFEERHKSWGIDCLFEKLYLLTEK
UniProt O14657: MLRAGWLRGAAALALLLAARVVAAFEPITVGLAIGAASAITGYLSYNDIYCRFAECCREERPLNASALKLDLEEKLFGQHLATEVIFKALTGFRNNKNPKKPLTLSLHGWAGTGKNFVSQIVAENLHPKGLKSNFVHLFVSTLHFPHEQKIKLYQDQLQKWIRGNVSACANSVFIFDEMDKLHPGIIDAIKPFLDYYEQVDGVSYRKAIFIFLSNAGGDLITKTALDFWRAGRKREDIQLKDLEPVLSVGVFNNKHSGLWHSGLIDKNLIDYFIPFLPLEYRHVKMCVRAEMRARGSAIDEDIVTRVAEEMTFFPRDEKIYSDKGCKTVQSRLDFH
UniProt P28908: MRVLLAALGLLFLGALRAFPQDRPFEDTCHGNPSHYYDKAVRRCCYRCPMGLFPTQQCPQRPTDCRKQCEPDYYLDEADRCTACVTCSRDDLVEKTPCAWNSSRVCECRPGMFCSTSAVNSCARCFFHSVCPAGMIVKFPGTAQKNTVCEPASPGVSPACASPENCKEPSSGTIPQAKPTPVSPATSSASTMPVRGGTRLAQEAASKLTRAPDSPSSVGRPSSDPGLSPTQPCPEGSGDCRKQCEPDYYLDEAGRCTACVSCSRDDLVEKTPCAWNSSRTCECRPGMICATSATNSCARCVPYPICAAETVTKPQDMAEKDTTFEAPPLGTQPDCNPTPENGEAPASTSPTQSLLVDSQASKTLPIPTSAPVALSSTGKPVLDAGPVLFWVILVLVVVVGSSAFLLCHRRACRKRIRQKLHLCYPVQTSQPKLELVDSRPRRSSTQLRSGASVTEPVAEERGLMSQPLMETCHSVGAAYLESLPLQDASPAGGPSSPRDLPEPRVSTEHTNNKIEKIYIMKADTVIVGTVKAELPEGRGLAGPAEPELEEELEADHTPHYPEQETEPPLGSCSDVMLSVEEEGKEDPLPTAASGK
UniProt Q71RG4: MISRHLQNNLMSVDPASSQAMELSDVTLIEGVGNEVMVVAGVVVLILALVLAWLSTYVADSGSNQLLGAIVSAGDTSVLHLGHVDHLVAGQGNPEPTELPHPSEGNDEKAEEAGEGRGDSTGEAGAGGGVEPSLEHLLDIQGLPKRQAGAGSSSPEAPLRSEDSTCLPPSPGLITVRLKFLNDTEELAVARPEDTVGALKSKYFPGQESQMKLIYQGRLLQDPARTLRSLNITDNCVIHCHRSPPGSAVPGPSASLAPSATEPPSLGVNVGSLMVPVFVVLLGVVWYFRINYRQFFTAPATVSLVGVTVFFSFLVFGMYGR
UniProt Q8N4H5: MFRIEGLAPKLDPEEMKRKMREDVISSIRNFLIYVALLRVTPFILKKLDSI
UniProt Q5SWH9: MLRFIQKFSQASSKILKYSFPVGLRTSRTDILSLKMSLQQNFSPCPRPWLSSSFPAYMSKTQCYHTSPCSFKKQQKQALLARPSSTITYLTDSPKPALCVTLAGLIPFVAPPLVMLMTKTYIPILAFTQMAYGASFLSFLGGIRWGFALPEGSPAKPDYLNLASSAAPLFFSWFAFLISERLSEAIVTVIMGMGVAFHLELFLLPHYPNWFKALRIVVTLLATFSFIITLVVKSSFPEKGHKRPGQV
UniProt Q96K49: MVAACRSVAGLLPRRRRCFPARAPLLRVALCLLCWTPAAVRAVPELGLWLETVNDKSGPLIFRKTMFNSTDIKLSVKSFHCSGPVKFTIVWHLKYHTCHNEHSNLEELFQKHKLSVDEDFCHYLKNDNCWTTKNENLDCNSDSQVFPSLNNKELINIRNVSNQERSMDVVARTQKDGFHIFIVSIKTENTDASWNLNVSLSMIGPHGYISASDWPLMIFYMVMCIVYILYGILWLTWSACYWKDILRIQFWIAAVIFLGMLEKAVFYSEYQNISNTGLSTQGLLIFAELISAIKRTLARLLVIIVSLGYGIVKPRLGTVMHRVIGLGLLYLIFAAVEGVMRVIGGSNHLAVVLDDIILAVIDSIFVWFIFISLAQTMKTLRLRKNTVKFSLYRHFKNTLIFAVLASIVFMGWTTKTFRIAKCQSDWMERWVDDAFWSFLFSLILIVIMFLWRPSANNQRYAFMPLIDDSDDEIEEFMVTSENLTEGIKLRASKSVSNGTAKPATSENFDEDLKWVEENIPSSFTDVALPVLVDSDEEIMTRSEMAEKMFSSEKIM
UniProt Q6ZXV5: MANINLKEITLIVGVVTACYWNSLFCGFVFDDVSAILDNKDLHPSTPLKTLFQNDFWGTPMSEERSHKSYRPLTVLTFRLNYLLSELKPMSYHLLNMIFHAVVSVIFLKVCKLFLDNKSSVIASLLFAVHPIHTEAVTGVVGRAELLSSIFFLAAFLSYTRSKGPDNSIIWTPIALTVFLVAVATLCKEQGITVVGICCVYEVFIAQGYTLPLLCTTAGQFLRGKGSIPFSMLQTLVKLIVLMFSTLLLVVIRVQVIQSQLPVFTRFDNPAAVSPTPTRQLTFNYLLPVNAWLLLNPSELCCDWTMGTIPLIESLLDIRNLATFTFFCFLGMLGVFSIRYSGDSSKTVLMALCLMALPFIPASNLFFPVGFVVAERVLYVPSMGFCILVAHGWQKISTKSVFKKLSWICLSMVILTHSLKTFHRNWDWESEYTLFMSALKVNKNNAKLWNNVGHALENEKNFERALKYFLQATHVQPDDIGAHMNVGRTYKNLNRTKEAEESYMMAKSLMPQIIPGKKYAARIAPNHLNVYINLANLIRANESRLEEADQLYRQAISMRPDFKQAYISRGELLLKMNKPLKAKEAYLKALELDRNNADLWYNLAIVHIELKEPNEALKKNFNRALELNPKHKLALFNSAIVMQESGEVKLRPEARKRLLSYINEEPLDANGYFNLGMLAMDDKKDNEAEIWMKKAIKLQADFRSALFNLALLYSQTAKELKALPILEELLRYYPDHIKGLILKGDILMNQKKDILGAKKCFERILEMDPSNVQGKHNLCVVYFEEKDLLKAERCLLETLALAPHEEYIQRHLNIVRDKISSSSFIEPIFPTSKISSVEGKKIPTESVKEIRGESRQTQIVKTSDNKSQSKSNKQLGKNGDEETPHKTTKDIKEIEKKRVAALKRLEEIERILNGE
UniProt Q5T3F8: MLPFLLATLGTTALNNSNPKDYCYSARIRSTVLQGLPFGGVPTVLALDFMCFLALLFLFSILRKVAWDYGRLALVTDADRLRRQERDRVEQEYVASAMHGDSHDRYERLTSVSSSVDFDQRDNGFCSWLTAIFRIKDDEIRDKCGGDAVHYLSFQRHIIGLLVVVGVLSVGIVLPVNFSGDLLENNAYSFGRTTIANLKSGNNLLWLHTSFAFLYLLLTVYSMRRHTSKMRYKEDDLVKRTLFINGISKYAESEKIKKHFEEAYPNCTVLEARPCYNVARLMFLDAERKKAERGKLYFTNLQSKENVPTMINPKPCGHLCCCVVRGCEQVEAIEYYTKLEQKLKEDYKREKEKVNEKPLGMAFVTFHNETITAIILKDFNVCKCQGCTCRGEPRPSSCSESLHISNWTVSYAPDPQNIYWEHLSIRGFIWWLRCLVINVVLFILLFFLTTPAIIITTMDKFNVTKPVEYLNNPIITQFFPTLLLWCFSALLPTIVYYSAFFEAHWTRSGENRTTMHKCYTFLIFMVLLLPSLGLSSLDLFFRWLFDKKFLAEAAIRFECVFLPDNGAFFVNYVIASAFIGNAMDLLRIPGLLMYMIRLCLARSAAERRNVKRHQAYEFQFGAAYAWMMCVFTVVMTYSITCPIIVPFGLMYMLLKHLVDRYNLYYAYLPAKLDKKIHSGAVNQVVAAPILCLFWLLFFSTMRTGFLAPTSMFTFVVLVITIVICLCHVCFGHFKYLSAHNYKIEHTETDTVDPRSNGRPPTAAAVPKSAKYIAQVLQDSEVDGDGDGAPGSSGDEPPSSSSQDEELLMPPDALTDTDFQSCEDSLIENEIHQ

[1] = compound: CC(=O)c1cnc2ccc(-c3cc(Cl)c(O)c(Cl)c3)nc2c1N[C@H]1CC[C@H](CN(C)C)CC1
Summary of the method: as §1

ralimetinib = compound: CC(C)(C)Cn1c(N)nc2ccc(-c3[nH]c(C(C)(C)C)nc3-c3ccc(F)cc3)nc21 [ralimetinib]
Summary of the method: as §1

[2] = compound: CC(C)(O)CC(=O)NCCn1ccc2ncnc(Nc3ccc(Oc4cccc(C(F)(F)F)c4)c(Cl)c3)c21
Summary of the method: as §1

[3] = compound: CC(C)C1=C2N=C(C=C(N2N=C1)NCC3=CC=CC=C3)NCCCCCCN
Summary of the method: as §1

[4] = compound: CC1=C(C(CC(=O)N1)C2=CC=C(C=C2)C(F)(F)F)C(=O)NC3=C(C=C4C(=C3)C=NN4)F
Summary of the method: as §1

[5] = compound: CC1=C(C2=C(C=C1)C(=O)C3=CC=CC=C3N2CCCN)C
Summary of the method: as §1

[6] = compound: CC1=C(C=C(C=C1)NC(=O)C2=CC(=CC=C2)C(C)(C)C#N)NC3=CC4=C(C=C3)N=CN(C4=O)C
Summary of the method: as §1

[7] = compound: CC1=C(C=C(C=C1)NC(=O)C2=CC(=CC=C2)N(C)C)NC(=O)C3=CC=C(C=C3)O
Summary of the method: as §1

[8] = compound: CC1=CC=C(C=C1)SC2=C3C=C(SC3=CN=C2)C(=O)N
Summary of the method: as §1

vemurafenib = compound: CCCS(=O)(=O)Nc1ccc(F)c(C(=O)c2c[nH]c3ncc(-c4ccc(Cl)cc4)cc23)c1F [vemurafenib]
Summary of the method: as §1

[9] = compound: CCCS(=O)(=O)Nc1ccc(F)c(C(=O)c2c[nH]c3ncc(Cl)cc23)c1F
Summary of the method: as §1

barasertib = compound: CCN(CCCOc1ccc2c(Nc3cc(CC(=O)Nc4cccc(F)c4)[nH]n3)ncnc2c1)CCOP(=O)(O)O [barasertib]
Summary of the method: as §1

[10] = compound: CC[C@@H]1C(=O)N(C)c2cnc(Nc3ccc(C(=O)NC4CCN(C)CC4)cc3OC)nc2N1C1CCCC1
Summary of the method: as §1

volasertib = compound: CC[C@@H]1C(=O)N(C)c2cnc(Nc3ccc(C(=O)N[C@H]4CC[C@H](N5CCN(CC6CC6)CC5)CC4)cc3OC)nc2N1C(C)C [volasertib]
Summary of the method: as §1

[11] = compound: CCn1c(C(=O)N(C2CC2)C2CC2)cc2c3c(ncn3C)c(Nc3cc(C)n(C)n3)nc21
Summary of the method: as §1

[12] = compound: CCn1cc(-c2ccnc3[nH]c(-c4cccc(CN(C)C)c4)cc23)c(-c2ccc(NC(=O)N(C)C)cc2)n1
Summary of the method: as §1

[13] = compound: CN1CCC(CNc2ccc3ncc(-c4cccc(OC(F)(F)F)c4)n3n2)CC1
Summary of the method: as §1

saracatinib = compound: CN1CCN(CCOc2cc(OC3CCOCC3)c3c(Nc4c(Cl)ccc5c4OCO5)ncnc3c2)CC1 [saracatinib]
Summary of the method: as §1

sotrastaurin = compound: CN1CCN(c2nc(C3=C(c4c[nH]c5ccccc45)C(=O)NC3=O)c3ccccc3n2)CC1 [sotrastaurin]
Summary of the method: as §1

| Target | log2 fold change (ibrutinib) | log2 fold change [1] | log2 fold change (ralimetinib) | log2 fold change [2] | log2 fold change [3] | log2 fold change [4] | log2 fold change [5] | log2 fold change [6] | log2 fold change [7] | log2 fold change [8] | log2 fold change (vemurafenib) | log2 fold change [9] | log2 fold change (barasertib) | log2 fold change [10] | log2 fold change (volasertib) | log2 fold change [11] | log2 fold change [12] | log2 fold change [13] | log2 fold change (saracatinib) | log2 fold change (sotrastaurin) |
| --- | --- | --- | --- | --- | --- | --- | --- | --- | --- | --- | --- | --- | --- | --- | --- | --- | --- | --- | --- | --- |
| TP53I3 (UniProt Q53FA7) | inactive: 0.003 | inactive: -0.017 | inactive: 0.043 | inactive: 0.038 | inactive: 0.009 | inactive: 0.013 | inactive: -0.018 | inactive: -0.035 | inactive: -0.034 | inactive: -0.014 | inactive: -0.025 | inactive: -0.031 | inactive: -0.018 | inactive: -0.031 | inactive: 0.015 | inactive: 0.023 | inactive: -0.073 | inactive: 0.042 | inactive: 0.019 | inactive: -0.02 |
| TNNI3K isoform 1 (UniProt Q59H18) | inactive: 0.055 | inactive: -0.056 | inactive: 0.07 | inactive: -0.04 | inactive: -0.299 | inactive: 0.139 | inactive: -0.028 | inactive: 0.058 | inactive: -0.028 | inactive: 0.059 | inactive: 0.019 | inactive: 0.007 | inactive: -0.028 | inactive: 0.014 | inactive: -0.033 | inactive: -0.004 | inactive: -0.034 | inactive: -0.029 | inactive: -0.006 | inactive: -0.018 |
| TOM1 isoform 2 (UniProt O60784) | inactive: -0.01 | inactive: 0.03 | inactive: 0.037 | inactive: -0.064 | inactive: 0.017 | inactive: -0.001 | inactive: -0.03 | inactive: 0.039 | inactive: -0.027 | inactive: -0.018 | inactive: -0.006 | inactive: -0.024 | inactive: 0.022 | inactive: 0.046 | inactive: -0.031 | inactive: -0.029 | inactive: -0.03 | inactive: -0.017 | inactive: 0.017 | inactive: -0.008 |
| TOMM70 (UniProt O94826) | inactive: -0.043 | inactive: -0.026 | inactive: -0.021 | inactive: 0.029 | inactive: 0.053 | inactive: -0.025 | inactive: 0.041 | inactive: -0.01 | inactive: 0.023 | inactive: 0.002 | inactive: 0.047 | inactive: -0.013 | inactive: 0.038 | inactive: 0.025 | inactive: 0.003 | inactive: 0.03 | inactive: 0.19 | inactive: -0.115 | inactive: -0.018 | inactive: 0.005 |
| TRADD (UniProt Q15628) | inactive: 0.013 | inactive: 0.017 | inactive: -0.005 | inactive: -0.012 | inactive: -0.018 | inactive: -0.015 | inactive: -0.001 | inactive: 0.017 | inactive: 0.021 | inactive: 0.019 | active: -0.611 | inactive: 0.052 | inactive: -0.002 | inactive: 0.07 | inactive: -0.023 | inactive: 0.065 | inactive: 0.014 | inactive: 0.001 | inactive: 0.011 | inactive: -0.023 |
| TPMT (UniProt P51580) | inactive: -0.003 | inactive: -0.008 | inactive: -0.009 | inactive: 0.04 | inactive: -0.027 | inactive: -0.015 | inactive: 0.031 | inactive: -0.005 | inactive: -0.027 | inactive: -0.006 | inactive: 0.005 | inactive: 0.017 | inactive: -0.003 | inactive: 0.069 | inactive: 0.006 | inactive: 0.036 | inactive: 0.02 | inactive: 0.002 | inactive: -0.041 | inactive: -0.028 |
| TOR1B (UniProt O14657) | inactive: 0.003 | inactive: 0.006 | inactive: 0.016 | inactive: 0.039 | inactive: 0.012 | inactive: -0.012 | inactive: 0.015 | inactive: 0.013 | inactive: 0.01 | inactive: -0.004 | inactive: -0.02 | inactive: 0.021 | inactive: 0.032 | inactive: -0.175 | inactive: 0.012 | inactive: -0.03 | inactive: -0.04 | inactive: 0.053 | inactive: 0.01 | inactive: 0.076 |
| TNFRSF8 (UniProt P28908) | inactive: 0.036 | inactive: 0.067 | inactive: 0.007 | inactive: -0.055 | inactive: -0.01 | inactive: -0.002 | inactive: 0.004 | inactive: 0.019 | inactive: 0.003 | inactive: 0.016 | inactive: -0.036 | inactive: -0.033 | inactive: 0.062 | inactive: 0.052 | inactive: 0.038 | inactive: -0.003 | inactive: -0.051 | inactive: 0.042 | inactive: -0.019 | inactive: 0.022 |
| TMUB2 (UniProt Q71RG4) | inactive: 0.053 | inactive: 0.094 | inactive: -0.019 | inactive: -0.044 | inactive: 0.045 | inactive: 0.018 | inactive: -0.049 | inactive: 0.033 | inactive: 0.05 | inactive: 0.058 | inactive: -0.013 | inactive: 0.137 | inactive: 0.063 | inactive: -0.034 | inactive: -0.149 | inactive: -0.028 | inactive: 0.089 | inactive: -0.061 | inactive: -0.018 | inactive: 0.019 |
| TOMM5 (UniProt Q8N4H5) | inactive: -0.125 | inactive: -0.05 | inactive: 0.051 | inactive: -0.058 | inactive: -0.02 | inactive: 0.063 | inactive: -0.096 | inactive: -0.02 | inactive: 0.078 | inactive: -0.018 | inactive: -0.012 | inactive: -0.045 | inactive: 0.075 | inactive: 0.166 | inactive: 0.05 | inactive: 0.032 | inactive: 0.128 | inactive: -0.147 | inactive: -0.038 | inactive: -0.024 |
| TMEM69 (UniProt Q5SWH9) | inactive: -0.024 | inactive: 0.03 | inactive: 0.002 | inactive: 0.011 | inactive: -0.121 | inactive: 0.025 | inactive: -0.038 | inactive: -0.015 | inactive: 0.015 | inactive: -0.073 | inactive: 0.095 | inactive: -0.02 | inactive: -0.196 | inactive: -0.035 | inactive: 0.019 | inactive: -0.063 | inactive: -0.225 | inactive: 0.108 | inactive: -0.008 | inactive: 0.002 |
| TMEM87B (UniProt Q96K49) | inactive: -0.076 | inactive: -0.017 | inactive: -0.003 | inactive: -0.001 | inactive: -0.047 | inactive: -0.011 | inactive: -0.01 | inactive: -0.012 | inactive: 0.028 | inactive: -0.012 | inactive: -0.004 | inactive: 0.047 | inactive: 0.091 | inactive: 0.018 | inactive: 0.005 | inactive: -0.006 | inactive: 0.074 | inactive: -0.032 | inactive: -0.166 | inactive: 0.026 |
| TOR3A (UniProt Q9H497) | inactive: 0.008 | inactive: 0.023 | inactive: 0.002 | inactive: -0.017 | inactive: -0.001 | inactive: 0.018 | inactive: -0.022 | inactive: -0.036 | inactive: 0.018 | active: 0.365 | inactive: -0.001 | inactive: -0.11 | inactive: -0.031 | inactive: -0.013 | inactive: -0.05 | inactive: -0.006 | inactive: -0.123 | inactive: 0.057 | inactive: 0.014 | inactive: 0.03 |
| TMTC3 (UniProt Q6ZXV5) | inactive: 0.014 | inactive: 0.015 | inactive: -0.022 | inactive: 0.021 | inactive: -0.01 | inactive: 0.011 | inactive: 0.003 | inactive: 0.019 | inactive: -0.004 | inactive: 0.015 | inactive: -0.042 | inactive: -0.021 | inactive: 0.056 | inactive: -0.029 | inactive: -0.021 | inactive: 0.045 | inactive: 0.253 | inactive: -0.045 | inactive: -0.011 | inactive: 0.037 |
| TMEM63B (UniProt Q5T3F8) | inactive: 0.002 | inactive: 0.01 | inactive: 0.013 | inactive: -0.034 | inactive: -0.023 | inactive: 0.033 | inactive: 0.008 | inactive: 0.005 | inactive: -0.016 | inactive: -0.008 | inactive: 0.02 | inactive: 0.004 | inactive: -0.062 | inactive: 0.046 | inactive: 0.002 | inactive: 0.074 | inactive: -0.092 | inactive: 0.074 | inactive: 0.044 | inactive: -0.038 |

At a glance, some entries already given.

| Target | log2 fold change (ibrutinib) | log2 fold change [1] | log2 fold change (ralimetinib) | log2 fold change [2] | log2 fold change [3] | log2 fold change [4] | log2 fold change [5] | log2 fold change [6] | log2 fold change [7] | log2 fold change [8] | log2 fold change (vemurafenib) | log2 fold change [9] | log2 fold change (barasertib) | log2 fold change [10] | log2 fold change (volasertib) | log2 fold change [11] | log2 fold change [12] | log2 fold change [13] | log2 fold change (saracatinib) | log2 fold change (sotrastaurin) |
| --- | --- | --- | --- | --- | --- | --- | --- | --- | --- | --- | --- | --- | --- | --- | --- | --- | --- | --- | --- | --- |
| TMEM69 (UniProt Q5SWH9) | inactive: -0.024 | inactive: 0.03 | inactive: 0.002 | inactive: 0.011 | inactive: -0.121 | inactive: 0.025 | inactive: -0.038 | inactive: -0.015 | inactive: 0.015 | inactive: -0.073 | inactive: 0.095 | inactive: -0.02 | inactive: -0.196 | inactive: -0.035 | inactive: 0.019 | inactive: -0.063 | inactive: -0.225 | inactive: 0.108 | inactive: -0.008 | inactive: 0.002 |
| TMEM87B (UniProt Q96K49) | inactive: -0.076 | inactive: -0.017 | inactive: -0.003 | inactive: -0.001 | inactive: -0.047 | inactive: -0.011 | inactive: -0.01 | inactive: -0.012 | inactive: 0.028 | inactive: -0.012 | inactive: -0.004 | inactive: 0.047 | inactive: 0.091 | inactive: 0.018 | inactive: 0.005 | inactive: -0.006 | inactive: 0.074 | inactive: -0.032 | inactive: -0.166 | inactive: 0.026 |
| TOR3A (UniProt Q9H497) | inactive: 0.008 | inactive: 0.023 | inactive: 0.002 | inactive: -0.017 | inactive: -0.001 | inactive: 0.018 | inactive: -0.022 | inactive: -0.036 | inactive: 0.018 | active: 0.365 | inactive: -0.001 | inactive: -0.11 | inactive: -0.031 | inactive: -0.013 | inactive: -0.05 | inactive: -0.006 | inactive: -0.123 | inactive: 0.057 | inactive: 0.014 | inactive: 0.03 |
| TMTC3 (UniProt Q6ZXV5) | inactive: 0.014 | inactive: 0.015 | inactive: -0.022 | inactive: 0.021 | inactive: -0.01 | inactive: 0.011 | inactive: 0.003 | inactive: 0.019 | inactive: -0.004 | inactive: 0.015 | inactive: -0.042 | inactive: -0.021 | inactive: 0.056 | inactive: -0.029 | inactive: -0.021 | inactive: 0.045 | inactive: 0.253 | inactive: -0.045 | inactive: -0.011 | inactive: 0.037 |

Source: the supplement of paper PMC10849652
